Test results reported in article PMC4426667.
These are yes or no findings as the source states them, for the method shown. In cells and extracts the contact can be indirect. Some binding calls cover weakened binding; strength is not graded here. Tags and fused reporters may be left off the sequences shown.

Tests used:
[1] = target: T1, FLAG-TRIM23 (tripartite motif protein 23), expressed in HEK293T cells (human) (UniProt P36406); test: co-IP; HEK293T cells transfected with FLAG-TRIM23 and HA-PPARγ2; lysis in 50 mM Tris-HCl pH 7.4, 150 mM NaCl, 1% Triton X-100; immunoprecipitation with anti-FLAG antibody, blot with anti-HA; also with or without 1 μM troglitazone
T1 sequence: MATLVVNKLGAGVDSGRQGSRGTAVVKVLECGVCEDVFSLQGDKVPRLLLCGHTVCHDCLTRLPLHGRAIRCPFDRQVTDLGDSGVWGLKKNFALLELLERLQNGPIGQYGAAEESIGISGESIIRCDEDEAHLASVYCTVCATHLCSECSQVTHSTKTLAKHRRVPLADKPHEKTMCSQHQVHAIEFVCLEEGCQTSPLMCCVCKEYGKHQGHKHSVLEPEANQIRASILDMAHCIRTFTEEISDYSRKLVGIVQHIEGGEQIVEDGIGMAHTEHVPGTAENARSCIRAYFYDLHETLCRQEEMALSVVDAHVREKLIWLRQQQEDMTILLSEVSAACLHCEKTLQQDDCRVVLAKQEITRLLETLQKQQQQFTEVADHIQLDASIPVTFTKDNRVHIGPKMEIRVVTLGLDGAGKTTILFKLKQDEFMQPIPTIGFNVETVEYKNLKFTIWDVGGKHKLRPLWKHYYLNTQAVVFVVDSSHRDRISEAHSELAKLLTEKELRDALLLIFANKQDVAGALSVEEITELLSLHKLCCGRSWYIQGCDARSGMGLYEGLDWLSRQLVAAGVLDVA

[2] = target: T2, FLAG-TRIM23, stably expressed in 3T3-L1 cells (human) (UniProt P36406); test: co-IP; 3T3-L1 cells stably expressing FLAG-TRIM23, differentiated, harvested at day 6; whole cell lysates immunoprecipitated with anti-FLAG antibody, blot with anti-PPARγ
T2 sequence: T1 sequence

binding [1] | binding [2] | Substance
binds |  | HA-PPARγ2 (peroxisome proliferator-activated receptor γ, isoform 2), expressed in HEK293T cells (from UniProt P37238-1 1-505)
 | binds | endogenous PPARγ2 of differentiated 3T3-L1 cells (from UniProt P37238-1 1-505)
